Drawing on patent publication US20080311091A1, this text covers binding for one substance.

Protein sequences, listed by entry. Tags and fused reporters are not part of them. Residues count along the entry.
UniProt P13297, residues 7-303: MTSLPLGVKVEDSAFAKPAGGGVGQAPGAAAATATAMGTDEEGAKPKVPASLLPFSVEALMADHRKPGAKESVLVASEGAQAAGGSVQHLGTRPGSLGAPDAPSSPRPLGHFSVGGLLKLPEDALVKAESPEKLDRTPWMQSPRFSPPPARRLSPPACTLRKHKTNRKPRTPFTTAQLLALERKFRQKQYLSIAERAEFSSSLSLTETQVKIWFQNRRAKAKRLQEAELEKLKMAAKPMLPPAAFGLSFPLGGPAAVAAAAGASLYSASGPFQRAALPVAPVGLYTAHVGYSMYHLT
UniProt Q62441: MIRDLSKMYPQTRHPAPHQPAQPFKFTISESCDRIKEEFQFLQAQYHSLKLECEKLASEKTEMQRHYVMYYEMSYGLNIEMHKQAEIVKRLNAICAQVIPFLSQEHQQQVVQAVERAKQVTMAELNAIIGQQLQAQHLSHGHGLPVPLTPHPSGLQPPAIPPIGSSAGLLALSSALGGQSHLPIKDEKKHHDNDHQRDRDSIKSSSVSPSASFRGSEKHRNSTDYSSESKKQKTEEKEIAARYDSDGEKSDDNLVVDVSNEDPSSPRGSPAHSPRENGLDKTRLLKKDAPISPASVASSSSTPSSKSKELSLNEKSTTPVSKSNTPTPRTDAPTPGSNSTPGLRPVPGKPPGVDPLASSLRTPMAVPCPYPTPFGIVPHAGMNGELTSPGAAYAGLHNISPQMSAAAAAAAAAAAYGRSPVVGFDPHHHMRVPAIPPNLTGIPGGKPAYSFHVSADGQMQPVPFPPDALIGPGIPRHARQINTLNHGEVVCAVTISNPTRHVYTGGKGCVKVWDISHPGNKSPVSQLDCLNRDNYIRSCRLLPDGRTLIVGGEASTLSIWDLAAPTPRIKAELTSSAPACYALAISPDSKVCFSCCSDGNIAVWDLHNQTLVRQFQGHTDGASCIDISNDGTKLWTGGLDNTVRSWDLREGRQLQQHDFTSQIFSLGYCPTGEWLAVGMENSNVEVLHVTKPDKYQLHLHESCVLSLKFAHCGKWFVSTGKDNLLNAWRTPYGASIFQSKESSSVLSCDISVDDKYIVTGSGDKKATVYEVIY

No constants are given. Whether binding was seen depends on the method and setting. Some entries that bind do so weakly or less than the wild type.

This assay addresses 35S-labeled Msx1 (mouse) (UniProt P13297). Nature of the assay: in vitro interaction assay, GST fusion with 35S-labeled protein.

With “GST-Grg4 fusion protein (from UniProt Q62441 1-773)”, the binding entry is reported as “binds”.
